Laboratory results: patent publication US8822690B2, “High transmissional yellow dye for LCD and synthetic method thereof” (LG Display Co., Ltd., priority 2012, dated 2014)
Some results were stated once for a whole list of compounds, not compound by compound.

Test: thermal resistance by Thermo Gravimetric Analyzer (TGA)
Assay type: physicochemical
Conditions: isothermal section at 220° C. for 30 min
Method: Through Thermo Gravimetric Analyzer (TGA), Thermogravimetric Analyzer 2050 (TA instruments), thermal resistance of the synthesized dye was measured (FIG. 3). For the thermal resistance test, change of mass reduction rate (w %) was measured by passing through isothermal section at 220° C. for 30 min, raising the temperature to 30° C.˜400° C. in 10° C./min. In order to apply it as a dye material for LCD color filter, the mass reduction in isothermal zone must be less than 5%. […] In case of QP3 and QP4, it was analyzed that functional groups introduced to improve the solubility gave somewhat reciprocal effects to the thermal resistance of dye. […] It seems that the weight loss is caused by effects of solvents or impurities rather than thermal resistance of dye itself.

Structure (SMILES) | mass reduction (weight loss) in isothermal zone
CC(C)(C)c1ccc2c(c1)C(=O)/C(=C1\C=Cc3cccc(N4C(=O)c5ccc(C(C)(C)C)cc5C4=O)c3N1)C2=O [QP3] | less than 5%
CCOC(=O)c1ccc2c(c1)C(=O)/C(=C1\C=Cc3cccc(N4C(=O)c5ccc(C(=O)OCC)cc5C4=O)c3N1)C2=O [QP4] | less than 5%
